According to PubChem BioAssay AID2551 (National Center for Advancing Translational Sciences (NCATS), 2010):
Screen size: about 310,000 compounds; about 17,000 (5.5%) were called active. This list was built around the results that the source calls inconclusive (neither active nor inactive); the mix of calls is not that of the screen. Calls follow the shape of the dose curve; as a rule, active = well fitted inhibition curve with a large enough effect; inconclusive = small, poorly fitted or top-dose-only effect, or effect the other way; inactive = no such curve, though single readings can be large or run the other way. Potencies beside an inconclusive call are fits to weak or partial responses and may not hold up.
% is scaled to controls: 0 for no effect and ±100 for the full control effect; potency is read from the fitted curve at half-maximal effect.
Also: nearly all actives have a fitted effect of over 60% in size.

Chains of the proteins cited; added tags and fusions are not shown. Lines headed by an entry give the natural chain unless they say otherwise; changes in a name come on top.
UniProt P51450: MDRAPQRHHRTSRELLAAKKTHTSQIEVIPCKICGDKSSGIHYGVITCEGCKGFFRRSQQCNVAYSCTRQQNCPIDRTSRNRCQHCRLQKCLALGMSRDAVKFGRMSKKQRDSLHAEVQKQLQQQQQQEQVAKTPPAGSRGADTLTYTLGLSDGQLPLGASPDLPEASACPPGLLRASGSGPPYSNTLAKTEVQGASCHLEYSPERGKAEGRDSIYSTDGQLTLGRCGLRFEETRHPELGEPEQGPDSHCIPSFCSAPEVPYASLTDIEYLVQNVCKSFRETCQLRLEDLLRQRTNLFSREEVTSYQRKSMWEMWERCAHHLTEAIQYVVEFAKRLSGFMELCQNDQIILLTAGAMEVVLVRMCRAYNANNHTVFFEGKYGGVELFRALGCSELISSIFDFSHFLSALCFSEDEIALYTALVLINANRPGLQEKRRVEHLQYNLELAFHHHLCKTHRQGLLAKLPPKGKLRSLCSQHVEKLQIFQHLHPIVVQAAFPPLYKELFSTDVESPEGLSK

What follows are molecules tested against Nuclear receptor ROR-gamma (Mus musculus) (UniProt P51450) (assay: qHTS for inhibitors of ROR gamma transcriptional activity). Conditions: Drosophila S2 Gal4-RORgamma UAS-luciferase reporter, 20 h; activity change, negative = inhibition: at 53.6 µM (top of the series).
Method in brief: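 Luminescence from a UAS-regulated Photinus luciferase reporter in stably transfected Drosophila Schneider cells is measured; decreased signal marks ROR gamma inhibition. Fusion expression is induced by 700 uM copper sulfate for 20 hr.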
For `Cc1cccc(NC(=O)c2ccc(-n3ccnc3)nc2)c1`, the Potency was inconclusive: 31.6 µM [activator, single point].
With `Oc1ccc(C(=S)N2CCN(c3cccc(Cl)c3)CC2)cc1` the Potency was “inactive”.
With `COCCCNC(=S)NC(=O)c1ccc([N+](=O)[O-])cc1` the Potency was inconclusive: 20 µM [inhibitor, single point].
`COc1ccc(OC)c(S(=O)(=O)N2CCN(c3c(C)cccc3C)CC2)c1` was tested, and the Potency was inconclusive: 2.51 µM [inhibitor, partial curve, poor fit].
`O=c1c2c([nH]c3ccccc13)CCCCC2` was tested, and the Potency was inconclusive: 31.6 µM [inhibitor, single point].
With `CCc1ccc(N(CC(=O)NC2CCCCC2)S(=O)(=O)c2c(C)noc2C)cc1` the Potency was inconclusive: 0.631 µM [activator, single point].
With `CC(C)NS(=O)(=O)c1ccc(CCC(=O)N2CCC(C(N)=O)CC2)cc1` the Potency was “inactive”.
`CSc1ccc(S(=O)(=O)Nc2ccc3c4c(cccc24)CC3)cc1` was tested, and the Potency was inconclusive: 11.2 µM [activator, single point].
With `COc1ccc(/C=C/c2nc3cc(-c4ccccc4)ccc3o2)cc1O` the Potency was active: 31.6 µM.
`N#C/C(=C(/O)COC(=O)c1cccnc1Cl)c1nc2ccccc2[nH]1` was tested, and the Potency was active: 7.94 µM.
In the case of `CC(=O)Oc1ccc2occ(C(=O)c3cccs3)c2c1`, the Potency is reported as inconclusive: 17.8 µM [activator, partial curve].
For `CCOC(=O)C1CCCN(C(=O)c2cn(CC(C)C)c(=O)c3cc(OC)c(OC)cc23)C1` (stereo not given), the Potency was inconclusive: 1.78 µM [activator, full curve].
`O=C1C(Nc2ccccc2)=CC(=O)c2ncccc21` was tested, and the Potency was active: 3.16 µM.
With `Cc1nn(C)c(-c2n[nH]c(=S)n2Cc2ccco2)c1Cl` the Potency was inconclusive: 20 µM [inhibitor, single point].
For `COc1ccc(-c2csc(N(CC3CCCO3)C(=O)c3ccc(C)cc3)n2)cc1` (stereo not given), the Potency was inconclusive: 14.1 µM [activator, single point].
For `COc1ccc(NC(=O)c2nc[nH]c2C(=O)NCC(=O)OC(C)(C)C)cc1`, the Potency was inconclusive: 11.2 µM [inhibitor, partial curve, poor fit].
With `CN1[C@H](CC(=O)c2ccccc2)CCC[C@H]1C[C@H](O)c1ccccc1` the Potency was “inactive”.
With `CCn1c(C)cc(/C=C2/SC(=S)NC2=O)c1C` the Potency was inconclusive: 28.2 µM [inhibitor, single point].
`CN1CCN(S(=O)(=O)c2cnccc2N2CCN(c3cccc(Cl)c3)CC2)CC1` was tested, and the Potency was inconclusive: 11.2 µM [activator, partial curve].
In the case of `O=C(Cn1cnc2c(cnn2-c2ccc(F)cc2)c1=O)N1CCCc2ccccc21`, the Potency is reported as “inactive”.
For `Cc1ccc(N2C(=O)CC(Sc3ccccc3C(=O)O)C2=O)cc1C` (stereo not given), the Potency was inconclusive: 25.1 µM [inhibitor, single point].
With `N#Cc1c(Cl)nc(N/N=C/c2ccccc2)c(Cl)c1Cl` the Potency was active: 8.91 µM.
With `CN(C)c1ccc(/C=N/n2c(COc3ccccc3)n[nH]c2=S)cc1` the Potency was active: 3.16 µM.
In the case of `CCn1c(CC(=O)Nc2ccc(C)cc2)nnc1SCC(=O)N1CCN(c2ccccc2)CC1`, the Potency is reported as inconclusive: 12.6 µM [activator, single point].
`O=C(Nc1ccc(Cl)c(C(F)(F)F)c1)N1CCCC(O)C1` (stereo not given) was tested, and the Potency was inconclusive: 31.6 µM [activator, single point].
`Cc1ccc(-c2csc3n[nH]c(=S)n23)cc1` was tested, and the Potency was active: 2.51 µM.
In the case of `COc1ccc(C2=CC(c3ccc(Cl)cc3)n3cnnc3N2)cc1OC` (stereo not given), the Potency is reported as inconclusive: 35.5 µM [inhibitor, single point].
For `CN=C1NN=C(c2cc(C)n(-c3c(C)n(C)n(-c4ccccc4)c3=O)c2C)CS1`, the Potency was inconclusive: 22.4 µM [inhibitor, single point].
With `O=C1CC(C2CCCO2)C(=O)N1c1ccc(Cl)c(Cl)c1` (stereo not given) the Potency was inconclusive: 3.55 µM [activator, partial curve].
For `Cc1ccc2nc(SCC(=O)Nc3cccc(S(=O)(=O)N(C)C)c3)[nH]c2c1`, the Potency was inconclusive: 11.2 µM [activator, partial curve].
`O=C(c1ccco1)N1CCN(C(c2ccccc2Cl)c2nnnn2Cc2cccs2)CC1` (stereo not given) was tested, and the Potency was inconclusive: 12.6 µM [activator, single point].
`CCCCOC(=O)Oc1ccc2c(=O)c(Oc3cccc(C)c3)coc2c1` was tested, and the Potency was inconclusive: 35.5 µM [inhibitor, single point].
In the case of `O=C(Oc1csc(=S)n1C(=O)c1ccccc1)c1ccccc1`, the Potency is reported as inconclusive: 12.6 µM [inhibitor, single point].
`NC(=S)NNc1cccc2cccnc12` was tested, and the Potency was “inactive”.
`Cc1ccc(Nc2nc(NCCO)c3ccccc3n2)cc1C` was tested, and the activity change, negative = inhibition was inactive: -29.7% [at 1.91 µM].
With `CCC(=O)Nc1ccc(N2CCC(C)CC2)cc1` the Potency was inconclusive: 6.31 µM [activator, partial curve].
For `Cc1nc(Oc2ccccc2)c2ccccc2n1`, the Potency was “inactive”.
With `Cc1ccc(C)c(OC(C)C(=O)Nc2nccs2)c1` (stereo not given) the Potency was inconclusive: 22.4 µM [inhibitor, single point].
With `Cc1cccc(N2C(=O)CC(Cn3nc(C)cc3C)C2=O)c1` (stereo not given) the Potency was “inactive”.
In the case of `CC(=O)Nc1ccc(-c2csc(-c3cccnc3)n2)cc1`, the Potency is reported as inconclusive: 0.562 µM [activator, full curve, poor fit].
In the case of `Cc1ccc(N(C(=O)c2snc(C(N)=O)c2N)C(C(=O)NC2CCCC2)c2ccncc2)cc1` (stereo not given), the Potency is reported as inconclusive: 7.08 µM [activator, partial curve].
For `O=S(=O)(N/N=C1/CC(c2ccccc2)Oc2ccccc21)c1ccc(Br)cc1` (stereo not given), the Potency was inconclusive: 35.5 µM [activator, single point].
In the case of `O=C(NC1CCCC1)c1cccc(Cn2cc([N+](=O)[O-])cn2)c1`, the Potency is reported as inconclusive: 11.2 µM [activator, single point].
With `Cc1ccccc1-n1cc[nH]c1=S` the Potency was inconclusive: 14.1 µM [inhibitor, single point].
For `Fc1ccc2c(c1)C(c1cccnc1)=NNC(c1cccs1)=N2`, the Potency was inconclusive: 35.5 µM [activator, single point].
